This data set relates to MBP-CsbHLH1 (Camellia sinensis). Briefly: EMSA. The following applies: EMSA on 6% polyacrylamide gel in TBE; binding buffer, pH and temperature not stated; recombinant protein; protein details: MBP, Ni-NTA purified. Background: A gel shift assay detects complexes by their altered migration in electrophoresis.

For at least one entry, the source does not settle the construct or the ends of the probe.

With “ATAAGTGTCATGTGTCTCAAAATTATGAATTTATCTAGCTCAGTAAGTG (double strand) [CsTCS1 promoter probe (-971 to -1019)]”, the binding result is on record as “binds”.

Source of the values: article PMC11648165.
